# Data: doi:10.1101/2025.10.15.682441
# Protein sequences, listed by entry. Tags and fused reporters are not part of them. Lines headed by an entry give the natural chain unless they say otherwise; changes in a name come on top.
# UniProt Q9UHD9: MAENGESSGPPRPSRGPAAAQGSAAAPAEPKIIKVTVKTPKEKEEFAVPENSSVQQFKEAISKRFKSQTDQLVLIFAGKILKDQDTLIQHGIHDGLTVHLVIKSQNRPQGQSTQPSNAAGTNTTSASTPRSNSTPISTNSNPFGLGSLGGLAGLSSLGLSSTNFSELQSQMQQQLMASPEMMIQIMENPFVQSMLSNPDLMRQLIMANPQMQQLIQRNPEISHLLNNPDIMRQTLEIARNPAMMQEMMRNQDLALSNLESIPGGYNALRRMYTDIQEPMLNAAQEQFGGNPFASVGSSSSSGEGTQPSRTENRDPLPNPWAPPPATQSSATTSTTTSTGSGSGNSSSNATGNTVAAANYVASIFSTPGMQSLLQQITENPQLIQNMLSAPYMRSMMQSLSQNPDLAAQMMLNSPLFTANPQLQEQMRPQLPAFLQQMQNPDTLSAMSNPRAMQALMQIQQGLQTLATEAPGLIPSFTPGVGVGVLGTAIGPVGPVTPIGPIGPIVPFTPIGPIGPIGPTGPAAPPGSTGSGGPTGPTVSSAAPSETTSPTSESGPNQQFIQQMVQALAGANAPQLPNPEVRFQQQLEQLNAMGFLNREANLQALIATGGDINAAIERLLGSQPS
# UniProt Q07812: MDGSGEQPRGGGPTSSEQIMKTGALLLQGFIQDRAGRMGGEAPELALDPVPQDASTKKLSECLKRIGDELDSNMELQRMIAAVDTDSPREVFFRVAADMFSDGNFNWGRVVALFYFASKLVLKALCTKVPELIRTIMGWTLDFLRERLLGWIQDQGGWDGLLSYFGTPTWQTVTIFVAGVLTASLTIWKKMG
# UniProt Q01484: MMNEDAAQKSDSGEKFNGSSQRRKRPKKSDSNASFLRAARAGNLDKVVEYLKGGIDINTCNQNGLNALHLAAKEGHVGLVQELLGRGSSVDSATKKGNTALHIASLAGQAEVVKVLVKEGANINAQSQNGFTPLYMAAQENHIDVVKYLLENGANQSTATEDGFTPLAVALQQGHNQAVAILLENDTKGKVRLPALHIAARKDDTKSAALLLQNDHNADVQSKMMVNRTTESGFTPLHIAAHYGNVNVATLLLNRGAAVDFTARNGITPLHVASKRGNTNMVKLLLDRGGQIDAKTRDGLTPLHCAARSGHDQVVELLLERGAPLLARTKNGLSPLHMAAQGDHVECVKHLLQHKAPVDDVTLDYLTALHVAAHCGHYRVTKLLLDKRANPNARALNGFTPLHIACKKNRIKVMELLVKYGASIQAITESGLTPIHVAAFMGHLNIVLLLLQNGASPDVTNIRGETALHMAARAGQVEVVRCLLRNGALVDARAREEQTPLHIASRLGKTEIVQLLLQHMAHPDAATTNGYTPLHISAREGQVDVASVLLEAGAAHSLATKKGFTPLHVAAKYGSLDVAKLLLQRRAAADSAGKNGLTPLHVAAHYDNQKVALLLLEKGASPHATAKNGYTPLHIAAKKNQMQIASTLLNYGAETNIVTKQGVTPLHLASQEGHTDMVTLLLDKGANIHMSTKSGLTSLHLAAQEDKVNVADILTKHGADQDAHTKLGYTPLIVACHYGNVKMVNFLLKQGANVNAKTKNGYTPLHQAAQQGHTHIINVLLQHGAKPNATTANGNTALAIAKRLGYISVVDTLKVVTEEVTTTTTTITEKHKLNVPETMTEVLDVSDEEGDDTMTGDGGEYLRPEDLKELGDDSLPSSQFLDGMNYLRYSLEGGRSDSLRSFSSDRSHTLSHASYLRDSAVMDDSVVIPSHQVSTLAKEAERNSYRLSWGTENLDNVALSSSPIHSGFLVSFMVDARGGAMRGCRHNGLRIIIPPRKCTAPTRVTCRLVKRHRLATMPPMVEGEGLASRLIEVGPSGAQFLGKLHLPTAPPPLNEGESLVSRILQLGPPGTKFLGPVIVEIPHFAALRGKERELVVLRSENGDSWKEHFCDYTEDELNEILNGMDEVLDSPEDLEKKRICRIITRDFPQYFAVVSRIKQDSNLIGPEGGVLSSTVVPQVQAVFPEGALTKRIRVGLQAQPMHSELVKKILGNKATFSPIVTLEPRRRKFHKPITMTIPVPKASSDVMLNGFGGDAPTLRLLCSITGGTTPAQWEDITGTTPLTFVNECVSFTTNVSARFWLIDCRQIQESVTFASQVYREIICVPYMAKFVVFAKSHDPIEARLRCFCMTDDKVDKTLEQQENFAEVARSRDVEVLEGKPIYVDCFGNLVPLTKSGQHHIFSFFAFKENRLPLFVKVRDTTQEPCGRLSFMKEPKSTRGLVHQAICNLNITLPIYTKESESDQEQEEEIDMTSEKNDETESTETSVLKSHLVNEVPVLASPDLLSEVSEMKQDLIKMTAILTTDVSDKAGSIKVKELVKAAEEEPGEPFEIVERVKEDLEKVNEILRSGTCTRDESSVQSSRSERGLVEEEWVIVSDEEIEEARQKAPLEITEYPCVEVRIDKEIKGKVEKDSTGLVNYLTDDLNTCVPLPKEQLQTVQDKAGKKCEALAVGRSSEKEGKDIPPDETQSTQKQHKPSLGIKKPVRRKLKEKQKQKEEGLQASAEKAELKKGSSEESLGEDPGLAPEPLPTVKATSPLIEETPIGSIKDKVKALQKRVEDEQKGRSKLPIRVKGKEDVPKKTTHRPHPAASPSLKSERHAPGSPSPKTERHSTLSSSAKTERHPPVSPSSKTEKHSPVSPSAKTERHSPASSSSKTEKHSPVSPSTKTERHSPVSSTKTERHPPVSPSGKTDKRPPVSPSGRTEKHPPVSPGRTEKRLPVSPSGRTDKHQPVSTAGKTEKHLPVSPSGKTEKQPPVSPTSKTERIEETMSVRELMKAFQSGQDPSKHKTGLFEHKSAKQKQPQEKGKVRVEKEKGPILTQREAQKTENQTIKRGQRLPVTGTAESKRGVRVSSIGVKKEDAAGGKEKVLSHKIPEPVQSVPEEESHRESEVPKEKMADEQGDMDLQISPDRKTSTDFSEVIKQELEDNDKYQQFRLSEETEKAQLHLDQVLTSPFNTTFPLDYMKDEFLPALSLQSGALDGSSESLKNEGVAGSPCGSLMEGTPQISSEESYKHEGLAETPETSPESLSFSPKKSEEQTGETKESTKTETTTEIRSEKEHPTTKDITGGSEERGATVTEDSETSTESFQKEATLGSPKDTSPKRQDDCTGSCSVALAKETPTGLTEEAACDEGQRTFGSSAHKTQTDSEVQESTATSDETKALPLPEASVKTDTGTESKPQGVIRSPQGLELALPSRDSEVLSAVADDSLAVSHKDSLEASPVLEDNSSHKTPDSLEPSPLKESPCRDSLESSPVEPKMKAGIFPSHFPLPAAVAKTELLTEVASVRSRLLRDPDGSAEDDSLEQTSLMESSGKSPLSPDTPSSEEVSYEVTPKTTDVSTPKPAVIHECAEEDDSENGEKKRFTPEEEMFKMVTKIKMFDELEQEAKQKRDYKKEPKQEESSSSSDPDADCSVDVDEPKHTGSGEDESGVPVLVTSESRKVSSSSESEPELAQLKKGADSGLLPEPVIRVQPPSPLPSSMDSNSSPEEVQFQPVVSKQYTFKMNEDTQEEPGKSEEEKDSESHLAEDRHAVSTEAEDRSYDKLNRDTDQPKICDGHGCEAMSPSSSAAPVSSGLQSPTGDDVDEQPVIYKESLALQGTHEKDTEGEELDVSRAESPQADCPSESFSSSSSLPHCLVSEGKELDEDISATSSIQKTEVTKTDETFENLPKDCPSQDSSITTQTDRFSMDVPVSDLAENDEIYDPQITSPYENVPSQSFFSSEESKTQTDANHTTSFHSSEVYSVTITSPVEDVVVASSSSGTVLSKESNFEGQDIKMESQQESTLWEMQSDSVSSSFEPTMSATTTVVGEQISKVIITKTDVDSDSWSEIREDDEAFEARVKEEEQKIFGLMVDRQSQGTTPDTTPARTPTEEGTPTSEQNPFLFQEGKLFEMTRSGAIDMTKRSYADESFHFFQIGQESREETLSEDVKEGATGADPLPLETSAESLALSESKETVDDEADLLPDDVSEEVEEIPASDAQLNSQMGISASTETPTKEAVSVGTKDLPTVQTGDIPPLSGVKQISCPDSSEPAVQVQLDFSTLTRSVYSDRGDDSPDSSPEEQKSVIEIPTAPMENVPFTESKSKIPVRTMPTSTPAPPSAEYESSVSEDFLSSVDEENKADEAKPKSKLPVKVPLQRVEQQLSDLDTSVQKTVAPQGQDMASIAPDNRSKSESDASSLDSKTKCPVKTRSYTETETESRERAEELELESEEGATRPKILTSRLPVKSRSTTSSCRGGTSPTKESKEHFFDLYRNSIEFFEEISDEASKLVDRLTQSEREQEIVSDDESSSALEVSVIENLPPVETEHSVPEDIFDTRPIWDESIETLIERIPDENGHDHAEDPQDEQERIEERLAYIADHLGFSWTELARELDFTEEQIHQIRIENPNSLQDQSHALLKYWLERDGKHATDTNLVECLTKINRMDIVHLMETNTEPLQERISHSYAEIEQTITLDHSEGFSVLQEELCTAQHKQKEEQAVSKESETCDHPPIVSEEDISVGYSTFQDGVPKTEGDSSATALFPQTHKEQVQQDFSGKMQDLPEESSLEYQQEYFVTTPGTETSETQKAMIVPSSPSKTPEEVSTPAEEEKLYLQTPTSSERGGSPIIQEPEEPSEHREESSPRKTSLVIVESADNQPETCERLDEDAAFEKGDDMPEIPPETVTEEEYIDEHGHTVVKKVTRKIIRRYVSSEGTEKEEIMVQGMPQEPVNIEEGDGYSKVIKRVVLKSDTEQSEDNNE
# UniProt P46379: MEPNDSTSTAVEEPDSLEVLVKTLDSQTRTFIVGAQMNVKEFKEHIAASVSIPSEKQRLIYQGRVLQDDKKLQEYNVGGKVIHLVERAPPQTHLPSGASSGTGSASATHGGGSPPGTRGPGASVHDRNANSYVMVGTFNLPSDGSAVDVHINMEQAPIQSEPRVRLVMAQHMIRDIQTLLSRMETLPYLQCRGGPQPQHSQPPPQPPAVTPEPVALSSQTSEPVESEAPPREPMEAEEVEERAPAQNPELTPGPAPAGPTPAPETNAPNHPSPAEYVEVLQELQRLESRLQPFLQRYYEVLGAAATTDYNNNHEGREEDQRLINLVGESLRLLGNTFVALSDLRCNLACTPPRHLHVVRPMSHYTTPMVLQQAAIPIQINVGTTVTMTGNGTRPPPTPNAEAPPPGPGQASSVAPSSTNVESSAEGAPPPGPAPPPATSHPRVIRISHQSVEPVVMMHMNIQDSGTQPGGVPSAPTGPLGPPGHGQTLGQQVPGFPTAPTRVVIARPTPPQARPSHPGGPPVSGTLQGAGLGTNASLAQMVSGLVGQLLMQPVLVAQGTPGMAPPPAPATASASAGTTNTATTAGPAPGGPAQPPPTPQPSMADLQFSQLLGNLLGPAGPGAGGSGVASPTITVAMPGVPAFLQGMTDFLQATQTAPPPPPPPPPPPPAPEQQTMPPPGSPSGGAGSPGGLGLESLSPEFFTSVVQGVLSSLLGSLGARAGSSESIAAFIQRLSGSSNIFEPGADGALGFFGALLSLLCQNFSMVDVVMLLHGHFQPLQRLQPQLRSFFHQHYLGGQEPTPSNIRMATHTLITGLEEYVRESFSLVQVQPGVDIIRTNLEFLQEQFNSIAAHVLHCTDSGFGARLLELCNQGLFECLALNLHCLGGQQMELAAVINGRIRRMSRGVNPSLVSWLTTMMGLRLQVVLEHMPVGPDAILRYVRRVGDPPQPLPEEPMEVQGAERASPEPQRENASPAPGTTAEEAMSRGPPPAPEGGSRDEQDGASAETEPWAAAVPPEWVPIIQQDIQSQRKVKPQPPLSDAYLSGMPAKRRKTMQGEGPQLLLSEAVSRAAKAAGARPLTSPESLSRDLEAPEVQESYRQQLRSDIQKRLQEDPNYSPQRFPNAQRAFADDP
# Like-named read-outs stand apart in the source and are kept apart here. These are yes or no findings as the source states them, for the method shown. In cells and extracts the contact can be indirect. Here binding means that the protein was enriched with, or labelled near, the bait; the list need not be complete.
# Legend:
# Experiment in all cases: affinity purification with mass spectrometry
# [1] = biological target: Ubiquilin-2, wild type (UBQLN2^WT) (human (endogenous in iPSCs and iMNs)) (UniProt Q9UHD9)
# [2] = biological target: Ubiquilin-2 4XALS mutant (UBQLN2^4XALS: P497H, P506T, P509S, P525S) (human (endogenous in iPSCs and iMNs)) (UniProt Q9UHD9)
# [3] = biological target: Ubiquilin-2 4XALS mutant (UBQLN2^4XALS: P497H, P506T, P509S, P525S) (human (endogenous in iPSCs and iMNs)) (UniProt Q9UHD9); remark: listed apart in the source
# [4] = biological target: Ubiquilin-2 P497H clinical mutant (UBQLN2^P497H) (human (endogenous in iPSCs and iMNs)) (UniProt Q9UHD9)
# [5] = biological target: Ubiquilin-2, wild type (UBQLN2^WT) (human (endogenous in iPSCs and iMNs)) (UniProt Q9UHD9); remark: listed apart in the source
# [6] = biological target: Ubiquilin-2 4XALS mutant (UBQLN2^4XALS: P497H, P506T, P509S, P525S) (human (endogenous in iPSCs and iMNs)) (UniProt Q9UHD9); remark: listed apart in the source
# [7] = biological target: Ubiquilin-2 P497H clinical mutant (UBQLN2^P497H) (human (endogenous in iPSCs and iMNs)) (UniProt Q9UHD9); remark: listed apart in the source
molecule,measurement,setting,value
BAX (from UniProt Q07812 1-192),binding,[1],binds
ANK2 (from UniProt Q01484 1-3957),binding,[2],binds
BCL2-associated athanogene 6 (BAG6) (from UniProt P46379 1-1132),binding,[2],binds
same,binding,[3],binds
"HYOU1 (also known as GRP170) (protein, UniProt Q9Y4L1 33-999) LAVMSVDLGSESMKVAIVKPGVPMEIVLNKESRRKTPVIVTLKENERFFGDSAASMAIKNPKATLRYFQHLLGKQADNPHVALYQARFPEHELTFDPQRQTVHFQISSQLQFSPEEVLGMVLNYSRSLAEDFAEQPIKDAVITVPVFFNQAERRAVLQAARMAGLKVLQLINDNTATALSYGVFRRKDINTTAQNIMFYDMGSGSTVCTIVTYQMVKTKEAGMQPQLQIRGVGFDRTLGGLEMELRLRERLAGLFNEQRKGQRAKDVRENPRAMAKLLREANRLKTVLSANADHMAQIEGLMDDVDFKAKVTRVEFEELCADLFERVPGPVQQALQSAEMSLDEIEQVILVGGATRVPRVQEVLLKAVGKEELGKNINADEAAAMGAVYQAAALSKAFKVKPFVVRDAVVYPILVEFTREVEEEPGIHSLKHNKRVLFSRMGPYPQRKVITFNRYSHDFNFHINYGDLGFLGPEDLRVFGSQNLTTVKLKGVGDSFKKYPDYESKGIKAHFNLDESGVLSLDRVESVFETLVEDSAEEESTLTKLGNTISSLFGGGTTPDAKENGTDTVQEEEESPAEGSKDEPGEQVELKEEAEAPVEDGSQPPPPEPKGDATPEGEKATEKENGDKSEAQKPSEKAEAGPEGVAPAPEGEKKQKPARKRRMVEEIGVELVVLDLPDLPEDKLAQSVQKLQDLTLRDLEKQEREKAANSLEAFIFETQDKLYQPEYQEVSTEEQREEISGKLSAASTWLEDEGVGATTVMLKEKLAELRKLCQGLFFRVEERKKWPERLSALDNLLNHSSMFLKGARLIPEMDQIFTEVEMTTLEKVINETWAWKNATLAEQAKLPATEKPVLLSKDIEAKMMALDREVQYLLNKAKFTKPRPRPKDKNGTRAEPPLNASASDQGEKVIPPAGQTEDAEPISEPEKVETGSEPGDTEPLELGGPGAEPEQKEQSTGQKRPLKNDEL",binding,[2],binds
same,binding,[4],binds
same,binding,[5],binds
same,binding,[6],binds
same,binding,[7],binds
"BTBD2 (protein, UniProt Q9BX70 1-525) MAAGGSGGRASCPPGVGVGPGTGGSPGPSANAAATPAPGNAAAAAAAAAAAAAAPGPTPPAPPGPGTDAQAAGAERAEEAAGPGAAALQREAAYNWQASKPTVQERFAFLFNNEVLCDVHFLVGKGLSSQRIPAHRFVLAVGSAVFDAMFNGGMATTSTEIELPDVEPAAFLALLKFLYSDEVQIGPETVMTTLYTAKKYAVPALEAHCVEFLKKNLRADNAFMLLTQARLFDEPQLASLCLENIDKNTADAITAEGFTDIDLDTLVAVLERDTLGIREVRLFNAVVRWSEAECQRQQLQVTPENRRKVLGKALGLIRFPLMTIEEFAAGPAQSGILVDREVVSLFLHFTVNPKPRVEFIDRPRCCLRGKECSINRFQQVESRWGYSGTSDRIRFSVNKRIFVVGFGLYGSIHGPTDYQVNIQIIHTDSNTVLGQNDTGFSCDGSASTFRVMFKEPVEVLPNVNYTACATLKGPDSHYGTKGLRKVTHESPTTGAKTCFTFCYAAGNNNGTSVEDGQIPEVIFYT",binding,[2],binds
"FAM168A/TCRP1 (protein, UniProt Q92567 1-244) MNPVYSPVQPGAPYGNPKNMAYTGYPTAYPAAAPAYNPSLYPTNSPSYAPEFQFLHSAYATLLMKQAWPQNSSSCGTEGTFHLPVDTGTENRTYQASSAAFRYTAGTPYKVPPTQSNTAPPPYSPSPNPYQTAMYPIRSAYPQQNLYAQGAYYTQPVYAAQPHVIHHTTVVQPNSIPSAIYPAPVAAPRTNGVAMGMVAGTTMAMSAGTLLTTPQHTAIGAHPVSMPTYRAQGTPAYSYVPPHW",binding,[2],binds
same,binding,[5],binds
"Paternally expressed gene 10 (PEG10) (protein, UniProt Q86TG7 1-708) MTERRRDELSEEINNLREKVMKQSEENNNLQSQVQKLTEENTTLREQVEPTPEDEDDDIELRGAAAAAAPPPPIEEECPEDLPEKFDGNPDMLAPFMAQCQIFMEKSTRDFSVDRVRVCFVTSMMTGRAARWASAKLERSHYLMHNYPAFMMEMKHVFEDPQRREVAKRKIRRLRQGMGSVIDYSNAFQMIAQDLDWNEPALIDQYHEGLSDHIQEELSHLEVAKSLSALIGQCIHIERRLARAAAARKPRSPPRALVLPHIASHHQVDPTEPVGGARMRLTQEEKERRRKLNLCLYCGTGGHYADNCPAKASKSSPAGKLPGPAVEGPSATGPEIIRSPQDDASSPHLQVMLQIHLPGRHTLFVRAMIDSGASGNFIDHEYVAQNGIPLRIKDWPILVEAIDGRPIASGPVVHETHDLIVDLGDHREVLSFDVTQSPFFPVVLGVRWLSTHDPNITWSTRSIVFDSEYCRYHCRMYSPIPPSLPPPAPQPPLYYPVDGYRVYQPVRYYYVQNVYTPVDEHVYPDHRLVDPHIEMIPGAHSIPSGHVYSLSEPEMAALRDFVARNVKDGLITPTIAPNGAQVLQVKRGWKLQVSYDCRAPNNFTIQNQYPRLSIPNLEDQAHLATYTEFVPQIPGYQTYPTYAAYPTYPVGFAWYPVGRDGQGRSLYVPVMITWNPHWYRQPPVPQYPPPQPPPPPPPPPPPPSYSTL",binding,[2],binds
